Measured values from paper PMC7819943, “Rice protein-binding microarrays: a tool to detect cis-acting elements near promoter regions in rice”.
The list shows a part of the results.

By UniProt entry, the sequences of proteins in these tests, tags left out.
UniProt Q0JBA9, entry or part of it: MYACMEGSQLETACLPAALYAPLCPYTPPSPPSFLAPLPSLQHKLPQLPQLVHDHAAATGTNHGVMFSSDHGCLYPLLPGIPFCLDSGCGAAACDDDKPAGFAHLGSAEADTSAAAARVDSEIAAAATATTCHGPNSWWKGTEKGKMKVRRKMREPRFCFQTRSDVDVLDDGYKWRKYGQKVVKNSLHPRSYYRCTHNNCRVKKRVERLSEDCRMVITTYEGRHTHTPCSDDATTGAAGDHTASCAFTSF

The sequences below were run against OsWRKY34 (Oryza sativa, UniProt Q0JBA9 1-250) (assay: protein-binding microarray (RPBM); PBS, 2% BSA, 51.3 ng/ul salmon testes DNA, 50 uM zinc acetate, 200 nM TF, 25 C, 1 h; high values mean tight binding). Conditions: protein: recombinant; tags: N-terminal polyhistidine and DsRed monomer fusion (pET32a); label: CyDye5-dUTP incorporated in the synthesized complementary strand; 3' TTTTT single-stranded linker to array surface; dsDNA, one strand shown.
Method in brief: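 Ni–NTA purification followed expression in E. coli BL21-CodonPlus of transcription factors fused N-terminally to a polyhistidine tag and DsRed. At 200 nM in PBS with 2% BSA, salmon testes DNA and 50 µM zinc acetate, the protein was incubated for 1 h at 25 °C with a custom Agilent array that had been primer-extended with Cy5-dUTP and blocked with 2% BSA. After washing, the array was read on an Axon 4000B scanner. The binding signal is per-feature fluorescence intensity in arbitrary units.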
“CTTGCTAATATCCTCACTCATGATACACGTGTAGCCCCTACGGAGTCACCTAGTGCAG” was tested, and the binding signal was 9790 fluorescence intensity (a.u.). For “ACGACGCATCACCCATCTCATTCTCATCATCGTCGCGTGACGGAGTCACCTAGTGCAG”, the binding signal was 10700 fluorescence intensity (a.u.). For “GACGTTCATTTTTATTCAACGGTTGTTTTTAGATTTTTCACGGAGTCACCTAGTGCAG”, the binding signal was 13500 fluorescence intensity (a.u.). With “ACGGTTGGACTTTCTCGATTAATCGCGTATCTGTGCACGTCGGAGTCACCTAGTGCAG” the binding signal was 9640 fluorescence intensity (a.u.). In the case of “TTCTCTCGTCGTTGTTGTTGTCGTTGTTGTTGCACTCGCGCGGAGTCACCTAGTGCAG”, the binding signal is reported as 11200 fluorescence intensity (a.u.). In the case of “CTGCTCCTCACGCCTGTACGTTCCGCTCCTTCACATCAGCCGGAGTCACCTAGTGCAG”, the binding signal is reported as 12500 fluorescence intensity (a.u.). With “ATGCGTTATGAATTCTGATTATCTTTTTCTCTTTTTTTTGCGGAGTCACCTAGTGCAG” the binding signal was 11200 fluorescence intensity (a.u.). With “GCTGGATTTTTATGGGAGGGCACACAAGGATTCTCTCCCGCGGAGTCACCTAGTGCAG” the binding signal was 11200 fluorescence intensity (a.u.). In the case of “TCTTCCGCTCGATCCCCGTCGCGGCGCCGCCTCGTCTCGCCGGAGTCACCTAGTGCAG”, the binding signal is reported as 8430 fluorescence intensity (a.u.). In the case of “AAACAATACAATGCACCTGCCGTACTATAATTTTGTCATTCGGAGTCACCTAGTGCAG”, the binding signal is reported as 9830 fluorescence intensity (a.u.). With “CCTCAATTTCCAGTGCCTGTAGTACTCTTCACTGTCTCCACGGAGTCACCTAGTGCAG” the binding signal was 8800 fluorescence intensity (a.u.). With “CGCACTGCCACCTACCCATCCGTCGTCGACGCAGATGATCCGGAGTCACCTAGTGCAG” the binding signal was 8750 fluorescence intensity (a.u.). In the case of “TTTGTCAATTGATGTATACATATGTGCTTTGTGTTCCTACCGGAGTCACCTAGTGCAG”, the binding signal is reported as 11100 fluorescence intensity (a.u.). In the case of “TACTGCAACATTGCAACCTGTTCCATCTTTTGGTTTATTACGGAGTCACCTAGTGCAG”, the binding signal is reported as 9150 fluorescence intensity (a.u.). With “ACTTATTCCTTGCAACTTTGCAAGCCATTGGGTCGGGCCACGGAGTCACCTAGTGCAG” the binding signal was 9780 fluorescence intensity (a.u.). “TGGTGTTGTCGGTGTGTGGGTGGTGATATACTTTTTTTTTCGGAGTCACCTAGTGCAG” was tested, and the binding signal was 11600 fluorescence intensity (a.u.). “GAGAAAAGTATCCCTGTTTGGCAACCGTATCTTCCTCATTCGGAGTCACCTAGTGCAG” was tested, and the binding signal was 8460 fluorescence intensity (a.u.). With “TCATCCTCGCCTGCAGCTTCACCACGCCGACGCCGTCGCTCGGAGTCACCTAGTGCAG” the binding signal was 9850 fluorescence intensity (a.u.). “TACTCTTGTTGGTTTCTTCTCCAGTCCAAGTGTCCGCGCTCGGAGTCACCTAGTGCAG” was tested, and the binding signal was 10300 fluorescence intensity (a.u.). For “GACTGAAGCTCGCAATACCATAAGTCGTTTTTGCTCACGACGGAGTCACCTAGTGCAG”, the binding signal was 8650 fluorescence intensity (a.u.). “TGGACTTTCTTATTATCCGTTTCCTAGTGCATCTATTAGTCGGAGTCACCTAGTGCAG” was tested, and the binding signal was 8120 fluorescence intensity (a.u.). For “CTAACCACCTCCAAGCTTCTCTCTCTCGCTCACAATCTCTCGGAGTCACCTAGTGCAG”, the binding signal was 9560 fluorescence intensity (a.u.). For “CAACCAGCTCATAGATATCTTGCACGTAATCTTCCTAATTCGGAGTCACCTAGTGCAG”, the binding signal was 8690 fluorescence intensity (a.u.). “ATACACTCTCTCGATCGCTTAATACTCCGTAGCTTTCAATCGGAGTCACCTAGTGCAG” was tested, and the binding signal was 8670 fluorescence intensity (a.u.). In the case of “TGGGGTTCTTTCATTCAGTCAGTTTGATGTTCTCTTCCTACGGAGTCACCTAGTGCAG”, the binding signal is reported as 9880 fluorescence intensity (a.u.). For “AAACGCTATCCGCTAACCCCTCGCGCCGTCGCGCTTCCTGCGGAGTCACCTAGTGCAG”, the binding signal was 8710 fluorescence intensity (a.u.). “AATTTGACAAGCATCCATAATAAGATTCAGATAACTTCCTCGGAGTCACCTAGTGCAG” was tested, and the binding signal was 14300 fluorescence intensity (a.u.). In the case of “CTCCCTCTATCAAAAAAATGTTTGACGCCGTTGACTTTTTCGGAGTCACCTAGTGCAG”, the binding signal is reported as 25600 fluorescence intensity (a.u.). With “AGTTGTGGGCATGAATCGGATCGTGTAGGATGGGGATAGGCGGAGTCACCTAGTGCAG” the binding signal was 11400 fluorescence intensity (a.u.). In the case of “GCTCTCCGCCTCTCCTGACTCCGGTGAGCAATTCCAAACCCGGAGTCACCTAGTGCAG”, the binding signal is reported as 9120 fluorescence intensity (a.u.). For “CGCCGGTTGCTTCCATATACTCTGCTCCTTTTTTTTCTATCGGAGTCACCTAGTGCAG”, the binding signal was 9240 fluorescence intensity (a.u.). For “ATGTATGATATTTCGTATACTTAAATTTACTTTTCATTTTCGGAGTCACCTAGTGCAG”, the binding signal was 9040 fluorescence intensity (a.u.). For “TTTTCTTCTATGCGTTGTGACCTGTCCATCTATGTACTGTCGGAGTCACCTAGTGCAG”, the binding signal was 11400 fluorescence intensity (a.u.). With “TCCGTTCAATAATCCAAATCAAACGTACCATTCGGCTTTCCGGAGTCACCTAGTGCAG” the binding signal was 8580 fluorescence intensity (a.u.). With “TCGTCTCTCTGTGTATGTTCATGGGTCCCACATAGCAATTCGGAGTCACCTAGTGCAG” the binding signal was 9520 fluorescence intensity (a.u.). In the case of “CGGGGAGTTGACTCAGATATTAAGAGTTTTTTCTTTTTCACGGAGTCACCTAGTGCAG”, the binding signal is reported as 8540 fluorescence intensity (a.u.). For “ACGCTCTATCTGTTTACTCTCTCCCGTTTCATTTTAATTACGGAGTCACCTAGTGCAG”, the binding signal was 13500 fluorescence intensity (a.u.). “CTATATATACCTCTCCCTTGTACTTGTCCAGTTCTTACACCGGAGTCACCTAGTGCAG” was tested, and the binding signal was 9540 fluorescence intensity (a.u.). With “TTTTTGTCAGAATTCTATGTTTTTTCTATTCCTCCGTTTTCGGAGTCACCTAGTGCAG” the binding signal was 9460 fluorescence intensity (a.u.). With “TATGGTCCTCTAGTTTTTCATCTACTCCACATGTGGCTCTCGGAGTCACCTAGTGCAG” the binding signal was 9270 fluorescence intensity (a.u.). With “ATACACATACGCTCGCTGCTTGGCTGGACGTCCGATATTTCGGAGTCACCTAGTGCAG” the binding signal was 9780 fluorescence intensity (a.u.). “AAAGTTTGACTTTTAAGAACAATTTAAGTGTACCTTTTAACGGAGTCACCTAGTGCAG” was tested, and the binding signal was 11100 fluorescence intensity (a.u.). For “TTGTCTCGCAACACAATCTCACTGCAGCAAACAATATCTTCGGAGTCACCTAGTGCAG”, the binding signal was 8680 fluorescence intensity (a.u.). For “GGTTGGATATTTGCTTGTAATTCTATATGTTTTTTTTCTGCGGAGTCACCTAGTGCAG”, the binding signal was 10400 fluorescence intensity (a.u.). For “TCTGCGCGACCCGCTACCACCCACACATCTTCCCGTCTCACGGAGTCACCTAGTGCAG”, the binding signal was 8320 fluorescence intensity (a.u.). With “AATATTCACAACCGTACCCCTCGATCTACCCACCGCCGCCCGGAGTCACCTAGTGCAG” the binding signal was 9810 fluorescence intensity (a.u.). With “TCCTTCTCTGACTCTGTCTTGGCCATCCTATTCCTAGCTCCGGAGTCACCTAGTGCAG” the binding signal was 10600 fluorescence intensity (a.u.). With “GAGCTGGACCCATGCATTTTGTTGCACCTTGAAAGTTTTACGGAGTCACCTAGTGCAG” the binding signal was 9680 fluorescence intensity (a.u.). With “TAGCTCGGATTCTGCCCCTAATCCCGCCGTCCGCCTCCGCCGGAGTCACCTAGTGCAG” the binding signal was 8490 fluorescence intensity (a.u.). With “AATGTTCTATAGTCGACCTGTAACTCGTTTTTTAGGAAAACGGAGTCACCTAGTGCAG” the binding signal was 8330 fluorescence intensity (a.u.). In the case of “CGCTGCTTTTGCTGCTGCTGTTGATGATGCATCCCATTCCCGGAGTCACCTAGTGCAG”, the binding signal is reported as 9140 fluorescence intensity (a.u.). In the case of “ATTATCCTTTCCCCGTTTCCGACCAGGCTTTCCACAGAAACGGAGTCACCTAGTGCAG”, the binding signal is reported as 9430 fluorescence intensity (a.u.). With “GCACCTCTTTCCTATCACGCGTCACCTTGCTCCATTGTCGCGGAGTCACCTAGTGCAG” the binding signal was 19000 fluorescence intensity (a.u.). For “TCTGTTGTGCTCTTTCGTGTGATAGATCGATTTTTTGATTCGGAGTCACCTAGTGCAG”, the binding signal was 10600 fluorescence intensity (a.u.).
